Earlier results in patent US20100105640A1, “Aromatase Inhibitors for Emergency Contraception” (priority 2005, published 2010).
At least one compound was matched to its structure with a doubt left.

Columns and labels:
[1] = used within 48 hours after intercourse; smaller study

C#C[C@]1(O)CC[C@H]2[C@@H]3CCC4=CC(=O)CC[C@@H]4[C@H]3CC[C@@]21CC [Levonorgestrel, levonorgestrel]
change of effectiveness with time after intercourse (in vivo): decrease in effectiveness with time | estimated effectiveness in preventing pregnancy (used within 72 hours after intercourse, 1001 women): 85% | effectiveness in pregnancy prevention [1]: 60%
